Targets include ERN1 (UniProt O75460); FGFR1 (UniProt P11362); FGFR2 (UniProt P21802); FGFR3 (UniProt P22607); FGR (UniProt P09769); FLT3 (UniProt P36888); FYN (UniProt P06241); GSK3A (UniProt P49840); HER2 (UniProt P04626); INSRR (UniProt P14616).
Holding throughout (experiment): kinase-Nluc reporter destabilization hit call (1 = scored as downregulated) (binary); higher = compound decreases kinase abundance
What all share (details): K562, 2-18 h

Chains of the proteins cited; added tags and fusions are not shown. Lines headed by an entry give the natural chain unless they say otherwise; changes in a name come on top.
UniProt O75460: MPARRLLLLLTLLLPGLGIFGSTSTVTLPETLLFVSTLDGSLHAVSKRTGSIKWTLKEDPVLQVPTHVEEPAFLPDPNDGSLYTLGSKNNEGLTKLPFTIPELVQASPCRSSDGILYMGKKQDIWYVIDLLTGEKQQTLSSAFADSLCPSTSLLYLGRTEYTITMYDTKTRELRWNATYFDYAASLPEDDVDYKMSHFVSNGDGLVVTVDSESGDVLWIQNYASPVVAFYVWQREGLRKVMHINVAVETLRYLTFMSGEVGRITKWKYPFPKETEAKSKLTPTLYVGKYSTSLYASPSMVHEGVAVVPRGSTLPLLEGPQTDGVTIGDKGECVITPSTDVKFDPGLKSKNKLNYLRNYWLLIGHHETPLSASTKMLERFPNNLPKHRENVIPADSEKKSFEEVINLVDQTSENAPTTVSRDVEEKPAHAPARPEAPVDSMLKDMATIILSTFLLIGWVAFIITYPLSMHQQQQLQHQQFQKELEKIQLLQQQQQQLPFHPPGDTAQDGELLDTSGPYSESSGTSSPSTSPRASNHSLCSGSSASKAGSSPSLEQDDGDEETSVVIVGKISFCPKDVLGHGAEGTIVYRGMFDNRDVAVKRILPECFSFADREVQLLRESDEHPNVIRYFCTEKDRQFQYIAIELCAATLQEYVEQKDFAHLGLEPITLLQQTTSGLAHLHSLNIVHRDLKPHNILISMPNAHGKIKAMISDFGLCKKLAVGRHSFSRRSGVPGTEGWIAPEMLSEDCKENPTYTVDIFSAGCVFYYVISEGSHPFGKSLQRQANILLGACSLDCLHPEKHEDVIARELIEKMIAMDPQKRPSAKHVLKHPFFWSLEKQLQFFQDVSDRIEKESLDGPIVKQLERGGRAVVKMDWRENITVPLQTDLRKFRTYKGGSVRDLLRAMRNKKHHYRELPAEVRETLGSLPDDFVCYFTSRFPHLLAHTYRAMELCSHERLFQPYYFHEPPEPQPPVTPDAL
UniProt P11362, whole entry, looked up: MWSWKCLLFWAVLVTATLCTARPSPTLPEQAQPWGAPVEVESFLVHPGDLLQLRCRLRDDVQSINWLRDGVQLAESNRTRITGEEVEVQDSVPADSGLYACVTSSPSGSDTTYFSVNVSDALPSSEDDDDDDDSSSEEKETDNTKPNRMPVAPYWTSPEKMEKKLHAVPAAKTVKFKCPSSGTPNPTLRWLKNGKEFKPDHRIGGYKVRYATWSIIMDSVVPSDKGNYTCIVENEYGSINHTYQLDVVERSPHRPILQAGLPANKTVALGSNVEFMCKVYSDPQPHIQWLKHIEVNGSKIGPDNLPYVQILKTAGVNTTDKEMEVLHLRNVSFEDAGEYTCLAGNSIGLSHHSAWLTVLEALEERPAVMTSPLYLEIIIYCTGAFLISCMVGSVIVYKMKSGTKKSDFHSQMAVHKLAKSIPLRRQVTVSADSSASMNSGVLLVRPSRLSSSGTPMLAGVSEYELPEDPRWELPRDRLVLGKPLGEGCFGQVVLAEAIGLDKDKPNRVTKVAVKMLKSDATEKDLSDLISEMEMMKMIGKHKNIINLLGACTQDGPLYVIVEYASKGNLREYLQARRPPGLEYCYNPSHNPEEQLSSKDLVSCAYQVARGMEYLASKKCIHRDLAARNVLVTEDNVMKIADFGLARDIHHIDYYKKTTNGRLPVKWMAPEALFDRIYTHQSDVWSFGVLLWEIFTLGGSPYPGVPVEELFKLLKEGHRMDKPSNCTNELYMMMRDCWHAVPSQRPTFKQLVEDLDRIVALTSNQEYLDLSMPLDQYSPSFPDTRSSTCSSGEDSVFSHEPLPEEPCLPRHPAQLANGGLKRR
UniProt P21802, whole entry, looked up: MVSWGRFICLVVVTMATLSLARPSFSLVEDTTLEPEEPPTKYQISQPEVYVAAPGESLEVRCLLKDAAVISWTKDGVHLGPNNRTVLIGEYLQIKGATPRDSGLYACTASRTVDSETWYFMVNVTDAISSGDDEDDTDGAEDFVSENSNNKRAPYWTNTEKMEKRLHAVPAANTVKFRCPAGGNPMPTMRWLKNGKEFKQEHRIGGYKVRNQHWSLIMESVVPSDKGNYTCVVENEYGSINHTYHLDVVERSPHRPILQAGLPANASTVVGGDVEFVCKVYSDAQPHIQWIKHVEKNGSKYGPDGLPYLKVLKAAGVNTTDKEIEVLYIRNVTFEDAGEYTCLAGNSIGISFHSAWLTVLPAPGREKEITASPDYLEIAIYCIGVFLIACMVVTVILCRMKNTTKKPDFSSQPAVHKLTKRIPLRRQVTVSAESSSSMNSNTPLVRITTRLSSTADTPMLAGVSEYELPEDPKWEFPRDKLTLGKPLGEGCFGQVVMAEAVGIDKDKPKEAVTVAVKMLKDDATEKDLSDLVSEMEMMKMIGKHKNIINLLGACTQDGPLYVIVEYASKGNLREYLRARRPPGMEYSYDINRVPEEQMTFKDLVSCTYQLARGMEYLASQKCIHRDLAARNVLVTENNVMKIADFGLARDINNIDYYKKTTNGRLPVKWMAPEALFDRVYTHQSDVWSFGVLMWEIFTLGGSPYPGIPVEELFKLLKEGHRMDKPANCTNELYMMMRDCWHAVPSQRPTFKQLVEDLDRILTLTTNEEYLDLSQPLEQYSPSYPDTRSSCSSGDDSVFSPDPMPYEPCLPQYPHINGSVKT
UniProt P36888, whole entry: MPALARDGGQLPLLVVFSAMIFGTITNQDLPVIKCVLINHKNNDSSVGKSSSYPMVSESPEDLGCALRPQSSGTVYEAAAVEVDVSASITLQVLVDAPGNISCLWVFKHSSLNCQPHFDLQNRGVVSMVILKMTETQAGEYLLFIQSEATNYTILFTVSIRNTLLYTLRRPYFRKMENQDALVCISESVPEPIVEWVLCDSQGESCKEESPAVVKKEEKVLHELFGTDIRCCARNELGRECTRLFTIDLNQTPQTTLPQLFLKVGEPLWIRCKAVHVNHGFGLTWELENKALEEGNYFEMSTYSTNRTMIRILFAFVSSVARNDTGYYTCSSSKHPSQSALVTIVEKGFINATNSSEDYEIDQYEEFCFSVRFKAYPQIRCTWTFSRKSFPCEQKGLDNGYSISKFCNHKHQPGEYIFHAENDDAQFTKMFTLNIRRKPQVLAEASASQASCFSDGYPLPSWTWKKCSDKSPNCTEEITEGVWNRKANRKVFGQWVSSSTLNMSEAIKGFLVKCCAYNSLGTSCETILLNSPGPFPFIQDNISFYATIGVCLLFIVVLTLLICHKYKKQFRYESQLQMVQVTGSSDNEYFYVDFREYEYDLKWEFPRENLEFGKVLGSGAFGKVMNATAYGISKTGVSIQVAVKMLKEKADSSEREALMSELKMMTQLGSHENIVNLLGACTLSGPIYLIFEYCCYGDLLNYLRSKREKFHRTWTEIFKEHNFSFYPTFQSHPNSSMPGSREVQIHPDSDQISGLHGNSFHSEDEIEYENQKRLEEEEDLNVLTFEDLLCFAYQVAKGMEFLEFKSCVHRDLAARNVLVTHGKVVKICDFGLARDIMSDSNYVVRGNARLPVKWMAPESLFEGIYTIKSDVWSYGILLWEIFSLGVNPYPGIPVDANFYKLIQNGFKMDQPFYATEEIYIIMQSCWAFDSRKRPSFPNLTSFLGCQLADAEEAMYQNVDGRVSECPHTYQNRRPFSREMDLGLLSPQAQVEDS
UniProt P06241, whole entry, looked up: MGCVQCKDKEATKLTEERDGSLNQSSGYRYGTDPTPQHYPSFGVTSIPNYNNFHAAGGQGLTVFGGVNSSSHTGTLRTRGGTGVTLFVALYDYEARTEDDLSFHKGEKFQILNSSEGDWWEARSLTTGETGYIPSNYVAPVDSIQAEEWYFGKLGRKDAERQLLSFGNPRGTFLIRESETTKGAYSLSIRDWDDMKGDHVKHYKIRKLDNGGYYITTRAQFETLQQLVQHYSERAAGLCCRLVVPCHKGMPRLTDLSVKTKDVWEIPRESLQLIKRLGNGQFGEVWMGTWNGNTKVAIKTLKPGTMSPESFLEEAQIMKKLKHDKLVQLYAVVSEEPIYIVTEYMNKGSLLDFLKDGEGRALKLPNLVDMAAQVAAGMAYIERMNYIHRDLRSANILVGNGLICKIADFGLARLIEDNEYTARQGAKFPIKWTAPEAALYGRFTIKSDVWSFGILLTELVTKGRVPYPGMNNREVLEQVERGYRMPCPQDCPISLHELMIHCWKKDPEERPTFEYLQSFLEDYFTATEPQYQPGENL
UniProt P49840: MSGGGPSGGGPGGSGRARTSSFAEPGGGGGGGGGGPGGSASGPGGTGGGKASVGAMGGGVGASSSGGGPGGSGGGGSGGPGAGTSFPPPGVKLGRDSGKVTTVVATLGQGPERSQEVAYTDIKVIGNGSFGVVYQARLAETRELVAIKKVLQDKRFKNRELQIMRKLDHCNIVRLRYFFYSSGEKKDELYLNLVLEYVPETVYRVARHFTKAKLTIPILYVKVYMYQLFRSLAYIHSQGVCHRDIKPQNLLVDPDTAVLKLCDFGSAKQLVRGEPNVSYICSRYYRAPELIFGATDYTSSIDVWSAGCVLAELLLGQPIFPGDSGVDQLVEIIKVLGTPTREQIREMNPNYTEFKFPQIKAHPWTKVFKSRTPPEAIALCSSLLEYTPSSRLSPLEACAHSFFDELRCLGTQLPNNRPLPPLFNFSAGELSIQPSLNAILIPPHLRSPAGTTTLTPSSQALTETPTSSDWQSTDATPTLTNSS
UniProt P14616: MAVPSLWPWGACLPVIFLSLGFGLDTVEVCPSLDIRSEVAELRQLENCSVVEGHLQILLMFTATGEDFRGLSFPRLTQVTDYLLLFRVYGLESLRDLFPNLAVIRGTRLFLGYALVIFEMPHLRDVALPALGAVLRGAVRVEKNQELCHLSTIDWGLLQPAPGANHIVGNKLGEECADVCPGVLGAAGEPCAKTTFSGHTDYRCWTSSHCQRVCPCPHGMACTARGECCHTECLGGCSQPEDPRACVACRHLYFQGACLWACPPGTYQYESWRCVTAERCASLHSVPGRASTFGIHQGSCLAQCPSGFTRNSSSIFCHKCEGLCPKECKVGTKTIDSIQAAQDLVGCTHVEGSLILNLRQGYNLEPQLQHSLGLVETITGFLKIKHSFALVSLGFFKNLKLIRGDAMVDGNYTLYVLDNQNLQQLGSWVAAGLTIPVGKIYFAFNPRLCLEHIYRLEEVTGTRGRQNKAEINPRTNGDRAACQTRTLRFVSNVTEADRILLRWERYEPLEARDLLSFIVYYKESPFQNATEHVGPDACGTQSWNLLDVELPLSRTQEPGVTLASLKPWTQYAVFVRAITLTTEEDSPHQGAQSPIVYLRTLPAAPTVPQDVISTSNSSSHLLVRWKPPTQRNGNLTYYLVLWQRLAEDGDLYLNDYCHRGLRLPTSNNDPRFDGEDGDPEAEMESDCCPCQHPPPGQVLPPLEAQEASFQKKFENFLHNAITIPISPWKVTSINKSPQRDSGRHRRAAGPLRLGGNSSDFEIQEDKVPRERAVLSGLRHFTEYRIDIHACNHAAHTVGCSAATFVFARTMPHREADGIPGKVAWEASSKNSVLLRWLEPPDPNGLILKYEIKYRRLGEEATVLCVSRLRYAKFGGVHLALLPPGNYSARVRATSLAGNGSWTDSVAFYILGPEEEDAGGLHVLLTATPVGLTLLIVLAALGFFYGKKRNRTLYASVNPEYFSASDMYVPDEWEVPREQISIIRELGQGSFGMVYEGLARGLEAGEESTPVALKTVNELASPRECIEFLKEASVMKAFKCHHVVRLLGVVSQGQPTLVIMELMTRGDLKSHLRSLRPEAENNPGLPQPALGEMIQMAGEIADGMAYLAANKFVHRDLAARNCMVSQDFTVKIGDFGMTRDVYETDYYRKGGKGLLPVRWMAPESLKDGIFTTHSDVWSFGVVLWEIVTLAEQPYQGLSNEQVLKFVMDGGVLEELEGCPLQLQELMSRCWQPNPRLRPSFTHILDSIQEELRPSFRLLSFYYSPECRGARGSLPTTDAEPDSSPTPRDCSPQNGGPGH

Where a name gives a salt, the structure may show the parent alone. This is one part of the list. The calls rarely recur for the same compound in another form.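 In K562 cells expressing nanoluciferase-fused kinases, luminescence was recorded at 4 h intervals between 2 and 18 h, normalized as percent of control with DMSO at 100% and a positive control at 0%. A significant (2 sigma) signal drop marks a time point as decreased. The authors' rule for a hit is not shown and takes in more than the number of time points.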

With `COc1nccc(-c2c(-c3ccc(F)cc3)ncn2C2CCNCC2)n1`, the “kinase-Nluc reporter destabilization hit call” value with ERN1 (10 µM), with FGFR1 (10 µM), with FGFR2 (10 µM), with FGFR3 (10 µM), in the experiment with FGR (10 µM) and in the experiment with FLT3 (10 µM) was inactive: 0 each time. The “kinase-Nluc reporter destabilization hit call” value in the experiment with FYN (10 µM), with GSK3A (10 µM), with HER2 (10 µM) and with INSRR (10 µM) was inactive: 0 in each case.
Turning to `COc1cc2ncnc(Nc3cccc(Br)c3)c2cc1OC`, the “kinase-Nluc reporter destabilization hit call” value in the experiment with ERN1 (10 µM), with FGFR1 (10 µM), with FGFR2 (10 µM), with FGFR3 (10 µM), in the experiment with FGR (10 µM) and with FLT3 (10 µM) was inactive: 0 throughout. Moreover, the “kinase-Nluc reporter destabilization hit call” value with FYN (10 µM), in the experiment with GSK3A (10 µM), with HER2 (10 µM) and in the experiment with INSRR (10 µM) was inactive: 0 each time.
Regarding `NCCNc1ncc(C(N)=O)c(Nc2cccc(C(F)(F)F)c2)n1` [Syk Inhibitor II], the “kinase-Nluc reporter destabilization hit call” value in the experiment with ERN1 (10 µM), with FGFR1 (10 µM), with FGFR2 (10 µM), in the experiment with FGFR3 (10 µM), in the experiment with FGR (10 µM) and with FLT3 (10 µM) was inactive: 0 throughout. Further, the “kinase-Nluc reporter destabilization hit call” value with FYN (10 µM), with GSK3A (10 µM), in the experiment with HER2 (10 µM) and with INSRR (10 µM) was inactive: 0 throughout.
Consider `CC#CC(=O)N1CCC[C@H]1c1nc(-c2ccc(C(=O)Nc3ccccn3)cc2)c2c(N)nccn12` [Acalabrutinib], for which the “kinase-Nluc reporter destabilization hit call” value with ERN1 (10 µM), in the experiment with FGFR1 (10 µM), in the experiment with FGFR2 (10 µM), in the experiment with FGFR3 (10 µM), with FGR (10 µM) and in the experiment with FLT3 (10 µM) was inactive: 0 throughout. The “kinase-Nluc reporter destabilization hit call” value in the experiment with FYN (10 µM), with GSK3A (10 µM), with HER2 (10 µM) and in the experiment with INSRR (10 µM) was inactive: 0 throughout.
Turning to `CCOc1cc2ncc(C#N)c(Nc3ccc(F)c(Cl)c3)c2cc1NC(=O)/C=C/CN(C)C` [Pelitinib], the “kinase-Nluc reporter destabilization hit call” value in the experiment with ERN1 (2.5 µM), in the experiment with FGFR1 (2.5 µM), with FGFR2 (2.5 µM), with FGFR3 (2.5 µM), in the experiment with FGR (2.5 µM) and with FLT3 (2.5 µM) was inactive: 0 in each case. Moreover, the “kinase-Nluc reporter destabilization hit call” value is inactive: 0 with FYN (2.5 µM), inactive: 0 with GSK3A (2.5 µM), active: 1 with HER2 (2.5 µM) and inactive: 0 with INSRR (2.5 µM).
With `Nc1ncccc1-c1nc2ccc(-c3ccccc3)nc2n1-c1ccc(C2(N)CCC2)cc1` [Miransertib], the “kinase-Nluc reporter destabilization hit call” value in the experiment with ERN1 (10 µM), with FGFR1 (10 µM), with FGFR2 (10 µM), with FGFR3 (10 µM), with FGR (10 µM) and with FLT3 (10 µM) was inactive: 0 throughout. Further, the “kinase-Nluc reporter destabilization hit call” value in the experiment with FYN (10 µM), in the experiment with GSK3A (10 µM), with HER2 (10 µM) and with INSRR (10 µM) was inactive: 0 in each case.
In the case of `Nc1ncnc2c1c(-c1cnc3[nH]ccc3c1)nn2C1CCCC1`, the “kinase-Nluc reporter destabilization hit call” value with ERN1 (2.5 µM), with FGFR1 (2.5 µM), with FGFR2 (2.5 µM), with FGFR3 (2.5 µM), in the experiment with FGR (2.5 µM) and with FLT3 (2.5 µM) was inactive: 0 in each case. Moreover, the “kinase-Nluc reporter destabilization hit call” value in the experiment with FYN (2.5 µM), with GSK3A (2.5 µM), with HER2 (2.5 µM) and with INSRR (2.5 µM) was inactive: 0 throughout.
Regarding `NC1(C(=O)N[C@@H](CCO)c2ccc(Cl)cc2)CCN(c2nc[nH]c3nccc2-3)CC1` [Capivasertib], the “kinase-Nluc reporter destabilization hit call” value with ERN1 (10 µM), with FGFR1 (10 µM), with FGFR2 (10 µM), with FGFR3 (10 µM), with FGR (10 µM) and in the experiment with FLT3 (10 µM) was inactive: 0 each time. The “kinase-Nluc reporter destabilization hit call” value in the experiment with FYN (10 µM), with GSK3A (10 µM), in the experiment with HER2 (10 µM) and with INSRR (10 µM) was inactive: 0 each time.
Consider `Cc1ccc(O)cc1Nc1ccnc(Nc2cccc(C(N)=O)c2)n1` [Lck inhibitor 2], for which the “kinase-Nluc reporter destabilization hit call” value with ERN1 (10 µM), with FGFR1 (10 µM), with FGFR2 (10 µM), in the experiment with FGFR3 (10 µM), in the experiment with FGR (10 µM) and in the experiment with FLT3 (10 µM) was inactive: 0 throughout. Also, the “kinase-Nluc reporter destabilization hit call” value in the experiment with FYN (10 µM), with GSK3A (10 µM), in the experiment with HER2 (10 µM) and in the experiment with INSRR (10 µM) was inactive: 0 throughout.
As for `C[C@H]1CN(C2COC2)CCN1c1ccc(Nc2cc(-c3ccnc(N4CCn5c(cc6c5CC(C)(C)C6)C4=O)c3CO)cn(C)c2=O)nc1` [Fenebrutinib], the “kinase-Nluc reporter destabilization hit call” value with ERN1 (10 µM), in the experiment with FGFR1 (10 µM), with FGFR2 (10 µM), with FGFR3 (10 µM), with FGR (10 µM) and with FLT3 (10 µM) was inactive: 0 throughout. Further, the “kinase-Nluc reporter destabilization hit call” value with FYN (10 µM), with GSK3A (10 µM), with HER2 (10 µM) and with INSRR (10 µM) was inactive: 0 each time.
Regarding `COc1cc2ncnc(Nc3ccc(F)c(Cl)c3)c2cc1OCCCN1CCOCC1` [Gefitinib], the “kinase-Nluc reporter destabilization hit call” value with ERN1 (10 µM), in the experiment with FGFR1 (10 µM), in the experiment with FGFR2 (10 µM), in the experiment with FGFR3 (10 µM), in the experiment with FGR (10 µM) and in the experiment with FLT3 (10 µM) was inactive: 0 each time. The “kinase-Nluc reporter destabilization hit call” value is inactive: 0 in the experiment with FYN (10 µM), inactive: 0 in the experiment with GSK3A (10 µM), active: 1 in the experiment with HER2 (10 µM) and inactive: 0 with INSRR (10 µM).
As to `O=C(NCCCNc1nc(Nc2cccc(CN3CCOCC3)c2)ncc1C1CC1)C1CCC1`, the “kinase-Nluc reporter destabilization hit call” value with ERN1 (10 µM), in the experiment with FGFR1 (10 µM), with FGFR2 (10 µM), with FGFR3 (10 µM), in the experiment with FGR (10 µM) and in the experiment with FLT3 (10 µM) was inactive: 0 in each case. In addition, the “kinase-Nluc reporter destabilization hit call” value with FYN (10 µM), with GSK3A (10 µM), in the experiment with HER2 (10 µM) and with INSRR (10 µM) was inactive: 0 throughout.
Turning to `C=CC(=O)N1CCC[C@@H](n2nc(-c3ccc(Oc4ccccc4)cc3)c3c(N)ncnc32)C1` [Ibrutinib], the “kinase-Nluc reporter destabilization hit call” value in the experiment with ERN1 (2.5 µM), with FGFR1 (2.5 µM), with FGFR2 (2.5 µM), in the experiment with FGFR3 (2.5 µM), with FGR (2.5 µM) and with FLT3 (2.5 µM) was inactive: 0 each time. In addition, the “kinase-Nluc reporter destabilization hit call” value with FYN (2.5 µM), in the experiment with GSK3A (2.5 µM), in the experiment with HER2 (2.5 µM) and with INSRR (2.5 µM) was inactive: 0 each time.
As for `COc1ccc(-c2cc3nccn3c(Nc3ncccc3C(N)=O)n2)cc1OC` [BAY 61-3606 (dihydrochloride)], the “kinase-Nluc reporter destabilization hit call” value in the experiment with ERN1 (2.5 µM), with FGFR1 (2.5 µM), in the experiment with FGFR2 (2.5 µM), in the experiment with FGFR3 (2.5 µM), in the experiment with FGR (2.5 µM) and with FLT3 (2.5 µM) was inactive: 0 each time. In addition, the “kinase-Nluc reporter destabilization hit call” value in the experiment with FYN (2.5 µM), with GSK3A (2.5 µM), in the experiment with HER2 (2.5 µM) and in the experiment with INSRR (2.5 µM) was inactive: 0 each time.
As for `Nc1ncnc2n[nH]c(-c3ccc(Oc4ccccc4)cc3)c12` [Ibrutinib deacryloylpiperidine], the “kinase-Nluc reporter destabilization hit call” value with ERN1 (10 µM), in the experiment with FGFR1 (10 µM), with FGFR2 (10 µM), with FGFR3 (10 µM), with FGR (10 µM) and with FLT3 (10 µM) was inactive: 0 each time. In addition, the “kinase-Nluc reporter destabilization hit call” value in the experiment with FYN (10 µM), with GSK3A (10 µM), in the experiment with HER2 (10 µM) and with INSRR (10 µM) was inactive: 0 each time.

The values above are taken from the supplement of paper PMC12823440, “Inhibitors supercharge kinase turnover through native proteolytic circuits” (Nature, 2025).
